Results are given in words; binding and its absence hold for the method and conditions named. Some results given as binding are weak or reduced against the parent protein; the word gives no strength. For some assays here: Sequences can lack the tags named with a protein.

Protein sequences, listed by entry. Tags and fused reporters are not part of them. Lines headed by an entry give the natural chain unless they say otherwise; changes in a name come on top.
UniProt P09429: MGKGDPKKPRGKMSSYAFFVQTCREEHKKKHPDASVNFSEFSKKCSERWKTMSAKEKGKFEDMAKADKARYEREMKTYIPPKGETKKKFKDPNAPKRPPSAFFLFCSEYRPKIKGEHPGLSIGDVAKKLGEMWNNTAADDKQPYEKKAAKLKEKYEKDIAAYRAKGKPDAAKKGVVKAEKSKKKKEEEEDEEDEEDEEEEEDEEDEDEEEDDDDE

Assay [1] deals with T1, HUNTHI, native histone-like protein HU (DNABII protein) of nontypeable Haemophilus influenzae (nontypeable Haemophilus influenzae (NTHI)) (UniProt P43722).
T1 sequence: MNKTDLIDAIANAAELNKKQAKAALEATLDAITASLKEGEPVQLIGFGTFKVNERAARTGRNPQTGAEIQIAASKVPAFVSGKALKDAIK
Nature of the assay: SPR (Biacore). For orientation: Surface plasmon resonance follows binding to a sensor surface in real time, without labels.

In assay [2] the target is T2, IHFNTHI, native integration host factor (DNABII protein) of nontypeable Haemophilus influenzae (nontypeable Haemophilus influenzae (NTHI)) (UniProt P43723).
T2 sequence 1: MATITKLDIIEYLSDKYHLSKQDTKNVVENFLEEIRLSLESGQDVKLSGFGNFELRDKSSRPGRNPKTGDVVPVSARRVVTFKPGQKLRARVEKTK
T2 sequence 2: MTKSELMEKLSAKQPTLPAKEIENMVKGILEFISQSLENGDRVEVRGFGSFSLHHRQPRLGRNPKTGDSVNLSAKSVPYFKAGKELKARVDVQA
Nature of the assay: SPR (Biacore).

Turning to “mHMGB1 (C45S), recombinant human HMGB1 with an engineered single amino acid mutation C45S (from UniProt P09429 1-215)”, the binding result in assay [1] and in assay [2] was “binds” in each case.
